# PubChem BioAssay AID540276 (National Center for Advancing Translational Sciences (NCATS), 2011)
# Among all 300,000 compounds or so, about 5,400 (1.8%) were called active. The shares of active, inactive and inconclusive entries below differ from those in the screen. Calls follow the shape of the full dose curve; tested in HEK293 cells. Potencies beside an inconclusive call are fits to weak or partial responses and may not hold up.
# Assay: qHTS for inhibitors of binding or entry into cells for Marburg Virus
# Details: Marburg virus pseudotyped entry inhibition, cell reporter; activity change, negative = inhibition: at 37.8 µM (top of the series) unless noted
# % is scaled to controls: 0 for no effect and ±100 for the full control effect; potency is read from the fitted curve at half-maximal effect.
SMILES,Potency,"activity change, negative = inhibition"
Cc1ccccc1OCc1ccc(C(=O)N2CC(C)OC(C)C2)o1 (stereo not drawn),"inconclusive: 35.5 µM [inhibitor, single point]",–
CCOC(=O)c1c(C)n(C)c2ccc(OC)c(NC(=O)CN3CCN(C4CCCCC4)CC3)c12,"inconclusive: 32.6 µM [inhibitor, single point]",–
O=C(/C=C/c1cccc(F)c1)N1CCN(c2ncccn2)CC1,"inconclusive: 3.55 µM [activator, partial curve, poor fit]",–
CCN(CC)CCNC(=O)c1ccc(NC(C)=O)cc1,"inconclusive: 35.5 µM [activator, single point]",–
Cc1ccc(/C=C2/C(=O)N=C(N)N2C)s1,"inconclusive: 0.631 µM [inhibitor, full curve]",–
Fc1ccc(CN2CCN(C(=S)NCCc3ccccc3)CC2)c(Cl)c1,"inconclusive: 35.5 µM [inhibitor, single point]",–
CN1CCN(C2Cc3ccc(Cl)cc3Sc3ccc(F)cc32)CC1 (stereo not drawn),"inconclusive: 25.1 µM [inhibitor, single point]",–
Cc1ccc(C(=O)N2CCCC(c3ccc(Cl)cc3)=N2)cc1,"inconclusive: 14.1 µM [inhibitor, partial curve, poor fit]",–
O=C(CSc1nc2ncc(Cl)cc2[nH]1)c1c[nH]c2ccccc12,"inconclusive: 35.5 µM [inhibitor, partial curve, poor fit]",–
CCOc1ccccc1OCCNC1CCCC1,–,inactive: -1.29%
Cc1c(NC(=O)c2ccc3c(c2)OCO3)cccc1-c1nc2ccccc2o1,active: 20.6 µM,–
Cc1[nH]n2c(=O)cc(-c3ccccc3Cl)nc2c1-c1ccccc1,–,inactive: -25.3% [at 46.1 µM]
Cc1cc(C)cc(NC(=O)CCCSc2nc3ccccc3[nH]2)c1,"inconclusive: 6.31 µM [inhibitor, single point]",–
CC(C)NS(=O)(=O)c1ccc(NC(=S)NC(=O)c2ccc(-c3ccccc3)cc2)cc1,"inconclusive: 10.3 µM [inhibitor, partial curve, poor fit]",–
N#CC1=C(N)Oc2cc(O)ccc2C1c1ccncc1 (stereo not drawn),"inconclusive: 0.126 µM [inhibitor, full curve, poor fit]",–
COc1cc(-c2cc(C(=O)OCC(=O)Nc3ccc4c(c3)OCO4)c3ccccc3n2)cc(OC)c1OC,–,inactive: -0.942%
Cc1nnc(SCC(=O)N(CC(C)C)C2CCS(=O)(=O)C2)s1 (stereo not drawn),"inconclusive: 20 µM [inhibitor, single point]",–
CC(/C=C/c1ccc(O)cc1)=NNc1ccccc1,"inconclusive: 10 µM [inhibitor, partial curve, poor fit]",–
Cc1cc(CN(C)C(=O)c2ccc(OC3CCN(CCc4ccccc4)CC3)cc2)on1,active: 3.16 µM,–
Nc1nc(N2CCN(c3ccc(F)cc3)CC2)n[nH]1,–,inconclusive: 33.2% [activator] [at 46.1 µM]
CC(=O)C1=C(OC(=O)C(C)C)c2ccccc2S(=O)(=O)N1Cc1ccccc1,–,inactive: -23.1% [at 46.1 µM]
CCC(=O)N1CCc2cc(Br)cc(S(=O)(=O)NCCc3ccc(OC)c(OC)c3)c21,–,inactive: 2.49% [at 46.1 µM]
CN(C)C(=O)/C(C#N)=C\c1cc(Br)c(Sc2ccc(Cl)cc2)o1,"inconclusive: 35.5 µM [inhibitor, single point]",–

SMILES,Potency,"activity change, negative = inhibition"
CSc1ccccc1C(=O)NCC(c1ccco1)N1CCCCC1 (stereo not drawn),"inconclusive: 2.51 µM [activator, partial curve, poor fit]",–
Cc1nc2ccccc2c(=O)n1NC(=O)c1c(O)c2c(n(CC(C)C)c1=O)CCCC2,"inconclusive: 9.2 µM [inhibitor, partial curve, poor fit]",–
O=C(CNc1cccc2ccccc12)N/N=C/c1cccc(Oc2ccccc2)c1,–,inactive: -32.1%
O=C(Cn1c(=O)n(Cc2ccco2)c(=O)c2ccccc21)Nc1ccc(Cl)cc1Cl,–,inactive: 0.884% [at 46.1 µM]
COc1cccc(NC(=O)C(C)Oc2ccccc2)c1 (stereo not drawn),"inconclusive: 4.61 µM [activator, single point]",–
O=C(COc1ccccc1-c1ccccc1)NCc1ccco1,"inconclusive: 35.5 µM [inhibitor, single point]",–
CC(C)CCC(O)(c1ccccc1)C(CN1CCOCC1)c1ccccc1 (stereo not drawn),"inconclusive: 35.5 µM [inhibitor, partial curve, poor fit]",–
c1cc(CNC2=NCCCCC2)ccn1,–,inactive: 3.19%
CC1=C(C(=O)Nc2ccccc2)C(c2ccncc2)n2nc(SCc3ccccc3Cl)nc2N1 (stereo not drawn),–,inactive: 27.3% [at 46.1 µM]
O=C(CNC(=O)c1ccccc1)OCN1C(=O)c2ccccc2C1=O,"inconclusive: 12.6 µM [activator, single point]",–
c1ccc(N2CCN(c3ccccc3)C2c2cccnc2)cc1,–,inactive: 6.37%
Cc1ccc(NC(=O)CN(C)C(=O)c2cccc(S(=O)(=O)NCc3ccccc3)c2)cc1,"inconclusive: 11.2 µM [inhibitor, partial curve, poor fit]",–
CC(C)Cn1c(N)c(S(=O)(=O)c2cccs2)c2nc3ccccc3nc21,–,inactive: -27%
CCC(=O)N1CCc2cc(Br)cc(S(=O)(=O)CCC(=O)N3CCN(c4cccc(C(F)(F)F)c4)CC3)c21,"inconclusive: 35.5 µM [activator, single point]",–
O=[N+]([O-])c1cc(-c2nc(-c3ccccc3)no2)ccc1N1CCCCC1,–,inactive: 3.54% [at 46.1 µM]
CCN(CC(=O)Nc1ccccc1OC)C(=O)CCc1ccccc1,"inconclusive: 1.26 µM [activator, partial curve, poor fit]",–
O=C(COc1ccc2ccccc2c1)Nc1cccnc1Cl,"inconclusive: 25.1 µM [activator, single point]",–
CN1CCN/C1=C(/C(Cl)=C(Cl)Cl)[N+](=O)[O-],–,inactive: 0.708% [at 46.1 µM]
Cc1ccc(C2(C)NC(=O)N(CC(=O)Nc3nc(-c4ccccn4)cs3)C2=O)cc1 (stereo not drawn),–,inactive: -28.7%
C(=N\N1CCN(C(c2ccccc2)c2ccccc2)CC1)/c1ccc2c(c1)OCO2,"inconclusive: 35.5 µM [inhibitor, single point]",–
Cc1ccc(C(NC(=O)Nc2ccccn2)C(Cl)(Cl)Cl)cc1F (stereo not drawn),"inconclusive: 6.31 µM [inhibitor, single point]",–
COc1ccc(-n2nc(C(N)=O)nc2-c2ccccc2)cc1,"inconclusive: 2.82 µM [inhibitor, single point]",–
CCOc1ccccc1N(CC(=O)NCCSCc1ccco1)S(=O)(=O)c1ccccc1,"inconclusive: 12.6 µM [inhibitor, single point]",–

SMILES,Potency,"activity change, negative = inhibition"
CCOc1ccc2oc(-c3ccccc3)c(C(=O)O)c2c1,–,inactive: -12.7%
O=c1cc(O)c2c(=O)n(-c3ccccc3)c3ccccc3c2o1,"inconclusive: 1.58 µM [activator, partial curve, poor fit]",–
c1ccc(CNCCCNCCCCNCCCNCc2ccccc2)cc1,"inconclusive: 7.08 µM [inhibitor, partial curve, poor fit]",–
O=c1c2ccccc2oc2ncccc12,"inconclusive: 35.5 µM [activator, single point]",–
CC(=O)c1cccc(NC(=O)/C=C/c2ccc([N+](=O)[O-])s2)c1,"inconclusive: 2.51 µM [inhibitor, partial curve, poor fit]",–
CCOC(=O)c1c(NC(=O)CSc2c[nH]c3ccccc23)sc2c1CCC2,"inconclusive: 10.3 µM [inhibitor, partial curve, poor fit]",–
CCOc1ccccc1NC(=S)NC1CCCCC1,"inconclusive: 29.1 µM [inhibitor, single point]",–
Cc1ccc(-c2csc3nnc(SCC(=O)Nc4cccc(C)n4)n23)cc1,"inconclusive: 0.501 µM [inhibitor, full curve]",–
O=S(=O)(O)c1ccc(N=Nc2ccccc2)cc1,–,inactive: 14.1% [at 46.1 µM]
Cc1ccccc1OCCNC(=O)c1ccc2ccccc2n1,"inconclusive: 35.5 µM [inhibitor, single point]",–
COc1cc(OC)cc(C(=O)NC(C(=O)NCCN(C)C)C23CC4CC(CC(C4)C2)C3)c1 (stereo not drawn),"inconclusive: 6.51 µM [inhibitor, partial curve, poor fit]",–
C=CCn1c(CCNC(=O)c2ccc(Cl)c(Cl)c2)nnc1SCCOc1ccc(OC)cc1,"inconclusive: 9.2 µM [inhibitor, partial curve]",–
COc1ccc(NC(=O)c2cc3c(-c4ccc(OC)c(OC)c4)nn(C)c3s2)cc1OC,active: 13 µM,–
COc1ccc(/C=C/C(=O)c2ccc3c(c2)OCCO3)cc1[N+](=O)[O-],"inconclusive: 29.1 µM [inhibitor, partial curve, poor fit]",–
CCCOc1ccc(CNCCCOCC)cc1OC,"inconclusive: 0.891 µM [inhibitor, full curve, poor fit]",–
CC(=O)c1ccc(N2CCN(C(=O)CCCn3c(=S)[nH]c4cc5c(cc4c3=O)OCO5)CC2)cc1,"inconclusive: 29.1 µM [inhibitor, single point]",–
NC(=O)COC(=O)c1cc(S(=O)(=O)N2CCOCC2)ccc1N1CCCCC1,"inconclusive: 14.1 µM [activator, single point]",–
C/C(=N\N=C1/NC(=O)C(C)S1)c1ccc([N+](=O)[O-])cc1 (stereo not drawn),"inconclusive: 13 µM [activator, partial curve, poor fit]",–
Cn1nccc1NS(=O)(=O)c1ccc(C(C)(C)C)cc1,"inconclusive: 6.31 µM [inhibitor, partial curve, poor fit]",–
Cc1ccc(-c2csc(Nc3ccc(S(N)(=O)=O)cc3)n2)o1,–,inactive: 21.6% [at 46.1 µM]
CCCOc1ccccc1C1CC(=O)Nc2cc3c(cc21)OCO3 (stereo not drawn),active: 6.31 µM,–
Cn1c2ccccc2c(=O)c2c(=O)n(C3CCCCC3)c(-c3ccco3)nc21,"inconclusive: 35.5 µM [activator, single point]",–

# Full records as entered above. Order of values: Potency | activity change, negative = inhibition
# Cc1ccccc1OCCNC(=O)c1ccc2ccccc2n1 is listed with inconclusive: 35.5 µM [inhibitor, single point] | –
# Cn1nccc1NS(=O)(=O)c1ccc(C(C)(C)C)cc1 is listed with inconclusive: 6.31 µM [inhibitor, partial curve, poor fit] | –
